US7964369 (Stanford University, dated 2011)

Molecular target: T1, SOS vector alone (hSOS without GRAIL) (human, UniProt Q07889 1-1066)
T1 construct: Negative control bait of the yeast two-hybrid screen
T1 sequence (looked up): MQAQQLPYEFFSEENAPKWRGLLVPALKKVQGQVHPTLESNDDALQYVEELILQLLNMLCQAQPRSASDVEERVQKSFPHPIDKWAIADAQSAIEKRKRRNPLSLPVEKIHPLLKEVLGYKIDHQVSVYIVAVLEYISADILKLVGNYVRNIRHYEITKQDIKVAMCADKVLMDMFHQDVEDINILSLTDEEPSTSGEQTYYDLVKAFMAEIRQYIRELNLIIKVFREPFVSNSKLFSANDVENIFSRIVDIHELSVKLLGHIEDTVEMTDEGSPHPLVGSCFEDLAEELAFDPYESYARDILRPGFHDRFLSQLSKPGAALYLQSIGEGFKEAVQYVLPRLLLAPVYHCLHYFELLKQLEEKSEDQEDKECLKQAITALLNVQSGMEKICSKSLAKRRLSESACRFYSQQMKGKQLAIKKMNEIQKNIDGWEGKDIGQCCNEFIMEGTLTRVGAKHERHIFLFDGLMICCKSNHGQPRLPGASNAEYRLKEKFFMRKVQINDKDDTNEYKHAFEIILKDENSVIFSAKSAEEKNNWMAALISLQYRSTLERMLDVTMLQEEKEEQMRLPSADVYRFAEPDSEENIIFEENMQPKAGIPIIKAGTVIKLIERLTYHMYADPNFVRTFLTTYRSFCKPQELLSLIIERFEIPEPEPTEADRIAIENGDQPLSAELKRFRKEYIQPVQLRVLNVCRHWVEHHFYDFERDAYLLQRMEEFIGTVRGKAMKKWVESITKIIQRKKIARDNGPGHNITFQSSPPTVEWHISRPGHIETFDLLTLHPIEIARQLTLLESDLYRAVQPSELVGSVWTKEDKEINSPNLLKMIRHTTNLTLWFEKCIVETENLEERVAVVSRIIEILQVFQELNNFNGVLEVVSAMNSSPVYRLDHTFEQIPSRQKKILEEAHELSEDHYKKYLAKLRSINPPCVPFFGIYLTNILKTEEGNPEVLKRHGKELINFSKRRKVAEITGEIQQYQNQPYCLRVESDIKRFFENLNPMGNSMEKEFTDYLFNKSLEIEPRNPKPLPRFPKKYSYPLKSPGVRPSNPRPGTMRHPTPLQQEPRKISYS
Assay: yeast two-hybrid (CytoTrap), secondary screen, growth on galactose at 37 C
Description: Table I: A mouse liver library cloned into pMyr vector was purchased from Stratagene (La Jolla, CA). The C-terminal half of GRAIL, starting at F225 was PCR amplified, cloned into the pSOS vector, and used as bait. Yeast competent cells were co-transformed with either the bait and library or control vectors as described in the CytoTrap instruction manual (Stratagene). More than 5 x 10^5 clones were screened. Colonies displaying growth on galactose but not glucose at 37° C. were considered to be putative positives and were evaluated in a secondary screen. Colonies growing in the secondary screen on galactose at 37° C. and in the presence of the GRAIL-SOS bait vector, but not the SOS vector alone, were considered true interactors and sequenced.
Yeast and bacterial two-hybrid analysis. A mouse liver library cloned into pMyr vector was purchased from Stratagene (La Jolla, Calif.). The C-terminal half of Grail, starting at F225, was PCR amplified, cloned into the pSOS vector, and used as bait. Yeast competent cells were co-transformed with either the bait and library or control vectors as described in the CytoTrap instruction manual (Stratagene). More than 5 ×10^5 clones were screened. Colonies displaying growth on galactose but not glucose at 37° C. were considered to be putative positives and were used on a secondary screen. […]

| Binder | binding result |
| --- | --- |
| clone 5C-27 (98% identical to human E2-H5a) (enzyme, mouse, UniProt P61080 1-147, looked up, Library clone; not shown: myristoylation signal of the pMyr plasmid) MALKRIQKELSDLQRDPPAHCSAGPVGDDLFHWQATIMGPPDSAYQGGVFFLTVHFPTDYPFKPPKIAFTTKIYHPNINSNGSICLDILRSQWSPALTVSKVLLSICSLLCDPNPDDPLVPDIAQIYKSDKEKYNRHAREWTQKYAM | no binding |
| clone 6C-12 (100% identical to human E2-H5c) (enzyme, mouse, UniProt P61079 1-147, looked up, Library clone; not shown: myristoylation signal of the pMyr plasmid) MALKRINKELSDLARDPPAQCSAGPVGDDMFHWQATIMGPNDSPYQGGVFFLTIHFPTDYPFKPPKVAFTTRIYHPNINSNGSICLDILRSQWSPALTISKVLLSICSLLCDPNPDDPLVPEIARIYKTDRDKYNRISREWTQKYAM | no binding |
